Test results from PubChem BioAssay AID2417 (National Center for Advancing Translational Sciences (NCATS), 2010).
Hit rate of the full screen: of about 140,000 compounds, about 4,300 (3.1%) were called active. Inconclusive results, whose numbers are uncertain, are shown with a selection of clear calls.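 The calls were made as follows: active = readout at or below -70, meaning at least 70% loss of cells showing the perinucleolar compartment, a nuclear body marking cancer cells; inconclusive = readout between -30 and a set limit; inactive = the rest.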

Experiment: High Content Assay for Compounds that inhibit the Assembly of the Perinucleolar Compartment;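 also: plate controls were DMSO wells for no effect and camptothecin positive control wells for full effect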
Settings: PC3M PTB-GFP, PNC prevalence imaging, 16 h; at 10 µM; stronger effect = lower value
In short: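 Read-out is percentage of cells bearing a perinucleolar compartment, from automated 20x imaging of fixed, Hoechst-stained PC3M PTB-GFP cells. Cells were seeded 4 h, then exposed 16 h to compound (23 nl of library stock) in duplicate plates.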

Structure (SMILES) | activity change (PNC), negative = inhibition
COc1cccc2sc(Nc3nnc(-c4ccccc4Cl)o3)nc12 | inconclusive: -49.5%
CC(=O)NCCC(=O)Nc1sc2c(c1-c1nc3ccccc3[nH]1)CCCC2 | active: -80.5%
Cc1ccc(C(=O)N2CCN(c3ccc(NC(=O)CSc4ccc(Cl)cc4)cc3)CC2)cc1 | active: -113%
O=C(O)CCCCn1c(SCc2cc(=O)n3cc(Cl)ccc3n2)nc2ccsc2c1=O | inconclusive: -43.4%
CCCCC(=O)Nc1sc(C(=O)N(CC)CC)c(C)c1C(=O)OC | active: -100%
C(=N\c1ncnc2sccc12)/NOCc1ccccc1 | inconclusive: -65.1%
Cc1cccc(/C(N)=N/OC(=O)CCC2CCCCC2)c1 | inconclusive: -68%
S=c1[nH]nc(Cc2ccccc2)n1Cc1ccco1 | inconclusive: -68.9%
O=S(=O)(NCc1ccccc1Br)c1cccs1 | inconclusive: -49.2%
Oc1ccccc1N1CCN(C(=S)NCCc2ccccc2)CC1 | inactive: -8.83%
CC1(C)CC(=O)C=C(N=CC2=C(O)CC(C)(C)CC2=O)C1 | inconclusive: -35.3%
CCN(CC)S(=O)(=O)c1ccc(N2CCCC2)c(NS(=O)(=O)c2ccccc2)c1 | inactive: 6.01%
CCC(=O)Nc1ccc(Cl)c(NC(=O)c2ccc([N+](=O)[O-])cc2)c1 | inconclusive: -66.3%
CCOc1ccc(Cl)cc1S(=O)(=O)n1cnc2ccccc21 | inconclusive: -34.8%
N#CC1=C(S)N(c2ccccc2)C(c2ccc(-c3ccccc3Cl)o2)NC1=O (stereo not given) | inconclusive: -52.2%
COC(=O)c1ccc(N2C(=O)c3cc(N4CCOCC4)c([N+](=O)[O-])cc3C2=O)cc1 | inconclusive: -64.4%
O=C(COC(=O)CCc1ccc(S(=O)(=O)N2CCOCC2)cc1)Nc1ncc(C(F)(F)F)cc1Cl | inconclusive: -38.7%
COc1cc2c(cc1OC)CN(Cc1nc3ccsc3c(=O)[nH]1)CC2 | active: -83.4%
C[C@@]1([C@@H](NC(=O)c2cccs2)c2ccc(-c3ccccc3)cc2)C[C@H]1C1CCCCC1 | inactive: 29.8%
C/C(=C1\SC(N2CCOCC2)=NC1=O)c1ccccc1 | inconclusive: -32%
Cc1cc(C=O)c(C)n1-c1ccc(Oc2ccc([N+](=O)[O-])cn2)cc1 | active: -118%
Cc1nc(NC(=O)CSc2nc3cccnc3n2C2CCCCC2)sc1C | active: -125%
O=C(NCc1cccs1)C(=O)NCC1OCCCN1S(=O)(=O)c1ccccc1 (stereo not given) | active: -90.5%

Structure (SMILES) | activity change (PNC), negative = inhibition
COC(=O)c1[nH]c2cccc(OC)c2c1NC(=O)CN1CCOCC1 | inconclusive: -33.3%
COc1ccc(N(C(=O)CNC(=O)c2ccco2)C(C(=O)NC2CCCCC2)c2ccco2)cc1 (stereo not given) | active: -127%
CCCn1nnnc1SCC(=O)N(C(C)C)C(C)C | inconclusive: -63.4%
COc1ccc(C2N(c3ccc(OC)cc3)C(=O)C3CCCN32)cc1 (stereo not given) | inactive: -28.2%
CCOc1ccc(N(CC(=O)Nc2ccc(C)c(C)c2)S(=O)(=O)c2c(C)noc2C)cc1 | inconclusive: -39.9%
CC1CCN(C(=O)CSc2nncn2C)CC1 | inactive: -27.5%
Cc1cc(Cl)ccc1NC(=O)CSc1nnc(Cc2cccs2)n1Cc1ccco1 | inconclusive: -73.6%
Cc1cccc(NC(=O)c2ccc(OC3CSC3)cc2)c1 | inconclusive: -78.4%
Cc1nc(CN2CCN(C(=O)c3ccc(C(C)(C)C)cc3)CC2)cs1 | inconclusive: -46.8%
Cc1cc(NC(=O)COC(=O)c2cccc(S(=O)(=O)N3CCOCC3)c2)no1 | inconclusive: -47.1%
CC(CC(=O)N1CCN(c2ccccc2)CC1)c1ccccc1 (stereo not given) | inactive: -11.1%
Cc1nn(-c2ccccc2)c(C)c1C(=O)OCC(=O)NCc1ccco1 | inactive: -9.25%
Fc1cccc(Cl)c1CSc1nnnn1-c1ccc2c(c1)OCO2 | inactive: 48.2%
CCCS(=O)(=O)N1CCN(C(=O)CCC2CCCC2)CC1 | inconclusive: -34.9%
O=C(c1cnc2n(c1=O)CCS2)N1CCCc2ccccc21 | inconclusive: -35.2%
COc1ccc(NC2=C(c3ccc(OC)cc3)C(=O)c3ccccc32)cc1 | inconclusive: -38.4%
Cc1nc2ccccc2nc(C)c1=NOCc1ccc(C#N)cc1 | inconclusive: -63.3%
COc1ccc(C)cc1S(=O)(=O)N1CCN(c2cccc(C(F)(F)F)c2)CC1 | inconclusive: -52.4%
C1=C(c2ccccc2)Nc2nnnn2C1c1cccs1 (stereo not given) | inconclusive: -61.5%
CCc1c(C(=O)Nc2cc(C)ccc2OC)[nH]c(C)c1C(C)=O | active: -93.5%
O=[N+]([O-])c1cccc(/C=N/n2cnnc2)c1O | inactive: 31.1%
Cc1ccc(OCC(=O)Nc2cc(S(=O)(=O)N3CCCCC3)ccc2C)c([N+](=O)[O-])n1 | inconclusive: -58.1%
Cc1cccc2c1CC(C)(C)N/C2=C\C(N)=O | inconclusive: -70.5%

Quoted from the listing:
Value of `CCOc1ccc(N(CC(=O)Nc2ccc(C)c(C)c2)S(=O)(=O)c2c(C)noc2C)cc1` under activity change (PNC), negative = inhibition: inconclusive: -39.9%
Value of `CCCn1nnnc1SCC(=O)N(C(C)C)C(C)C` under activity change (PNC), negative = inhibition: inconclusive: -63.4%
Value of `Cc1cccc(NC(=O)c2ccc(OC3CSC3)cc2)c1` under activity change (PNC), negative = inhibition: inconclusive: -78.4%
Value of `Cc1cc(Cl)ccc1NC(=O)CSc1nnc(Cc2cccs2)n1Cc1ccco1` under activity change (PNC), negative = inhibition: inconclusive: -73.6%

Continuation:

Structure (SMILES) | activity change (PNC), negative = inhibition
CC(C)N(C(=O)CSc1nnc(NC(=O)C2CCC2)s1)C(C)C | active: -102%
Cc1ccc(S(=O)(=O)N2CC=C(c3ccc(F)cc3)CC2)cc1 | active: -80.3%
Cc1cc(Cl)c(S(=O)(=O)N2CCN(c3cccc(C)c3C)CC2)cc1OCC(N)=O | inconclusive: -40.2%
Cc1ccc2cc(CN(Cc3ccco3)C(=O)c3ccccc3)c(=O)[nH]c2c1C | inactive: -12.4%
CCCCn1c(SCC(=O)c2ccc(OC)c(OC)c2)nc2cc(S(N)(=O)=O)ccc21 | inconclusive: -41.9%
CCNC(=O)CC1C(=O)N(c2ccccc2)C(=O)N1CCc1ccc(OC)cc1 (stereo not given) | inconclusive: -37.4%
CC1=NN(c2ccccc2)C(=O)/C1=C/c1cc2cc(C)ccc2nc1N1CCCCC1 | inactive: -10.6%
CCn1cc(/C=C/C(=O)NCc2c(C)nn(C)c2C)cn1 | inactive: -16%
Cc1ccccc1C(=O)N1CCCN(C(=O)c2ccccc2C)CC1 | inactive: -11.4%
Cc1ccc(N2CC(C(=O)N3CCc4ccccc4C3)CC2=O)cc1 (stereo not given) | inconclusive: -55.9%
Cc1cc(=O)[nH]c(=S)n1-c1ccccc1 | active: -122%
CC(=O)c1cc2c(cc1NS(=O)(=O)c1ccccc1)OCO2 | inactive: -3.17%
CC(C)NC(=O)NC(=O)COC(=O)c1ccc(OC(F)(F)F)cc1 | active: -88.8%
COc1ccc(N2CCN(C(c3cccs3)C(C)NC(=O)c3ccco3)CC2)cc1 (stereo not given) | inconclusive: -31.1%
O=C(CCNS(=O)(=O)c1cccc2nsnc12)Nc1ccc2c(c1)OCCO2 | inactive: 10%
O=C(Nc1ccc2c(c1)CCC2)C1COc2ccccc2O1 (stereo not given) | inconclusive: -34.2%
Cc1cc(NC(=O)CN2CCN(S(=O)(=O)c3ccc(Cl)cc3)CC2)no1 | inconclusive: -56.2%
COC(=O)NCCOc1cc(C)ccc1C | inconclusive: -53.7%
Cc1[nH]c2ccccc2c1CC(=O)O | inactive: -8.37%
O=C(CC1C(=O)N(c2ccc(F)cc2)C(=O)N1Cc1ccccn1)Nc1ccccc1 (stereo not given) | inconclusive: -53.3%
CCOC(=O)c1ccccc1NCN1C(=O)CSC1=O | inconclusive: -42.8%
CCc1nc2sc3c(c2c(=O)n1N)CC(C)(C)OC3 | inconclusive: -59.1%
Cc1onc(-c2ccccc2)c1C(=O)Nc1ccccc1C#N | inconclusive: -36.6%

Structure (SMILES) | activity change (PNC), negative = inhibition
COc1ccc(-n2c(C)cc(C(=O)CN3C(=O)c4ccccc4C3=O)c2C)cc1 | inconclusive: -48.5%
O=C(O)C1CCCN(S(=O)(=O)c2cccs2)C1 (stereo not given) | active: -100%
CC(C)CC(=O)NN1CCCCC1 | inactive: -21%
O=C(Nc1ccc(N2CCN(C(=O)c3cccs3)CC2)c(Cl)c1)c1ccco1 | inconclusive: -39.6%
CCOC(=O)N1CCN(C2CC(=O)N(c3ccccc3)C2=O)CC1 (stereo not given) | inactive: -9.92%
COc1ccc2c(c1)N(C(=O)CSc1n[nH]c(C)n1)C(C)(C)C=C2C | inconclusive: -39.1%
CCCn1nnc(NC(=O)COc2cc(C)ccc2C(C)C)n1 | inconclusive: -65.7%
COc1cc2c(C(=O)N3CCCc4ccccc43)cn(C)c(=O)c2cc1OC | inconclusive: -71.6%
Cc1ccc(CSc2nc3c(c(N(C)C)n2)CCCC3)cc1 | inactive: -19.8%
Cc1nc(SCC(=O)Nc2c(C)n(C)n(-c3ccccc3)c2=O)n[nH]1 | inconclusive: -56.6%
COC(=O)c1ccc(N2CCN(S(=O)(=O)c3ccc(C)cc3)CC2)c([N+](=O)[O-])c1 | inconclusive: -44.8%
O=C1Nc2ccc(F)cc2C12Nc1ccccc1-c1nnc(SCc3ccccc3Cl)nc1O2 (stereo not given) | inactive: 32.1%
COCCN=c1scc(-c2cccs2)n1/N=C/c1ccc(O)c(O)c1O | inconclusive: -48.1%
Cc1ccc(C(C)C)c(OCC(=O)Nn2c(=O)[nH]c3ccccc3c2=O)c1 | inconclusive: -36.4%
CC(C)N1CCN(c2ccncc2S(=O)(=O)N2CCOCC2)CC1 | inconclusive: -44.7%
O=C(COc1ccc(S(=O)(=O)N2CCCC2)cc1)NCCC1=CCCCC1 | inconclusive: -33.9%
O=c1nc(-c2ccccc2)c2cc(Cl)ccc2[nH]1 | inconclusive: -42.8%
Cc1ccc(/C(N)=N/OC(=O)c2ccco2)cc1 | inconclusive: -55.8%
CC(C)Oc1cc2oc(=O)c3c(c2cc1Cl)CCC3 | inconclusive: -35.5%
O=C(c1ccco1)[C@@H]1[C@@H]2C(=O)N(c3ccccc3)C(=O)[C@@H]2C2c3ccccc3C=CN21 (stereo not given in full) | inactive: 30.8%
CCN(CC)CCNC(=O)c1cn(-c2ccccc2)nc1-c1cccs1 | inactive: -24.4%
